Laboratory results reported in paper PMC11213338.
Results are given in words; binding and its absence hold for the method and conditions named. Binding can be weak; no strength is given. Tags and fused reporters may be left off the sequences shown.

Target: GST-γb_(H85A) (barley stripe mosaic virus (ND18 strain))
Assay: pull-down; GST pull-down: purified GST-tag protein with His-tag protein in 50 mM Tris-HCl pH 6.8, 500 mM NaCl, 1.5% glycerol, 0.6% Triton-X 100, 0.1% Tween 20, 3 h at 4°C; with or without 10 μg RNaseA, Zn^2+ 2-200 μM, 20 μM other divalent cations, or EDTA (200 μM in Fig 4D and 4E); blots with anti-GST or anti-His; both purified

B1: CP-His (protein, UniProt P04866 1-198)
chain: MPNVSLTAKGGGHYIEDQWDTQVVEAGVFDDWWVHVEAWNKFLDNLRGINFSVASSRSQVAEYLAALDRDLPADVDRRFAGARGQIGSPNYLPAPKFFRLDKRTIAELTRLSRLTDQPHNNRDIELNRAKRATTNPSPPAQAPSENLTLRDVQPLKDSALHYQYVLIDLQSARLPVYTRKTFERELALEWIIPDAEEA
  binding: binds weakly
